From paper PMC4230799
These are yes or no findings as the source states them, for the method shown. In cells and extracts the contact can be indirect. Some binding calls cover weakened binding; strength is not graded here.

Protein sequences, listed by entry. Tags and fused reporters are not part of them. Residues count along the entry.
UniProt P23467, residues 23-1997: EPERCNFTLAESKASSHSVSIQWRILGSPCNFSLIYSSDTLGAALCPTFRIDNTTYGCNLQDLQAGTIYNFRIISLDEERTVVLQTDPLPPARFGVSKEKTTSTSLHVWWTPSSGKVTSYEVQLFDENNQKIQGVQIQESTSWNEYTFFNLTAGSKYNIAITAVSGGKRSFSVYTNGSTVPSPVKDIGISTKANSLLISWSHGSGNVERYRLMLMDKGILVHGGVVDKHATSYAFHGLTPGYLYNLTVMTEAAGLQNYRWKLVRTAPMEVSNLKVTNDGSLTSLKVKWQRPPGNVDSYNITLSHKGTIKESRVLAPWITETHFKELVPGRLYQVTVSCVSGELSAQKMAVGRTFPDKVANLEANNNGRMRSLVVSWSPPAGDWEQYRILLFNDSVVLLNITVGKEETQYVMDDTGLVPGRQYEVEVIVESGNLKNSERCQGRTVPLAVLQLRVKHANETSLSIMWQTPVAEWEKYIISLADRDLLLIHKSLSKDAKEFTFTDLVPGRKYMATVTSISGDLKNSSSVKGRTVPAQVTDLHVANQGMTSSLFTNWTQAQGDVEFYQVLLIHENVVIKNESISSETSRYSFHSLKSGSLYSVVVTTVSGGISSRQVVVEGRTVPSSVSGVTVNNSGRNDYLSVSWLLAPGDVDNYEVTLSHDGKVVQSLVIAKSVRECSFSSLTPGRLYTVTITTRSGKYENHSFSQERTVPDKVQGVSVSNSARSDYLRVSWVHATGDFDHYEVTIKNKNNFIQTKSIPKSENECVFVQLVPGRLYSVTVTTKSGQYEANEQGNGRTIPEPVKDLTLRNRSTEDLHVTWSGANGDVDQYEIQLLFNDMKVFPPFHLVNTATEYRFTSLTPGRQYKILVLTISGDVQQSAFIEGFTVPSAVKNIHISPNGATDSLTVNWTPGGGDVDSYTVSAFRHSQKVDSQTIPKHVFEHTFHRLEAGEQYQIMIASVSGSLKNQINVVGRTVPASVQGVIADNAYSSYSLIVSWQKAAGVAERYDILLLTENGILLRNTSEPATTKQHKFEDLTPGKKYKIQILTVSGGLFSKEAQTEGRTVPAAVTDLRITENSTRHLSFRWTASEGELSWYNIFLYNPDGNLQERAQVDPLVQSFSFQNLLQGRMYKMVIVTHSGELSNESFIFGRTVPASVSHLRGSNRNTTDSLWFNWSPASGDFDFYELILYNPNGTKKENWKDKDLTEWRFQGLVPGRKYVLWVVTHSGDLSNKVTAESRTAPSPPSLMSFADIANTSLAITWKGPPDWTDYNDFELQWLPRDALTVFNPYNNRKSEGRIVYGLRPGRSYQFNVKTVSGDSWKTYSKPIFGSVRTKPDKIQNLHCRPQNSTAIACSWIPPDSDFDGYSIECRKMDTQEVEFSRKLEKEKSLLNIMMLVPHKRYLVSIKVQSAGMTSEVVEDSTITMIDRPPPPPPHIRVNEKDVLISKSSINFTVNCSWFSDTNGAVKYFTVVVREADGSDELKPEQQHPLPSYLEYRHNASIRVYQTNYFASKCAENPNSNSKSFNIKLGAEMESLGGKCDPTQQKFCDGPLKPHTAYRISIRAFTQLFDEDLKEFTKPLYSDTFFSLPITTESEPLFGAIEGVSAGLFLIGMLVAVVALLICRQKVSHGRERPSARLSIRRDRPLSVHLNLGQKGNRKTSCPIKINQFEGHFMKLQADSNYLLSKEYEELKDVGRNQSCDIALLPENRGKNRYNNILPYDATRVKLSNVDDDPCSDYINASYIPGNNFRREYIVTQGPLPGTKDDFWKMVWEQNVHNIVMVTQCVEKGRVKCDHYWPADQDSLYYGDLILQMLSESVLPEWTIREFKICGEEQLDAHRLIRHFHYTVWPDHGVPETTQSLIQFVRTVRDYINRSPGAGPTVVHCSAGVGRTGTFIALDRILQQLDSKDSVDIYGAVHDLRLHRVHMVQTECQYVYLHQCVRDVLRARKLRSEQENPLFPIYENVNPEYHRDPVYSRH

T1: vascular endothelial-cadherin (human (endogenous in hBMVECs)) (UniProt P33151)
T1 sequence: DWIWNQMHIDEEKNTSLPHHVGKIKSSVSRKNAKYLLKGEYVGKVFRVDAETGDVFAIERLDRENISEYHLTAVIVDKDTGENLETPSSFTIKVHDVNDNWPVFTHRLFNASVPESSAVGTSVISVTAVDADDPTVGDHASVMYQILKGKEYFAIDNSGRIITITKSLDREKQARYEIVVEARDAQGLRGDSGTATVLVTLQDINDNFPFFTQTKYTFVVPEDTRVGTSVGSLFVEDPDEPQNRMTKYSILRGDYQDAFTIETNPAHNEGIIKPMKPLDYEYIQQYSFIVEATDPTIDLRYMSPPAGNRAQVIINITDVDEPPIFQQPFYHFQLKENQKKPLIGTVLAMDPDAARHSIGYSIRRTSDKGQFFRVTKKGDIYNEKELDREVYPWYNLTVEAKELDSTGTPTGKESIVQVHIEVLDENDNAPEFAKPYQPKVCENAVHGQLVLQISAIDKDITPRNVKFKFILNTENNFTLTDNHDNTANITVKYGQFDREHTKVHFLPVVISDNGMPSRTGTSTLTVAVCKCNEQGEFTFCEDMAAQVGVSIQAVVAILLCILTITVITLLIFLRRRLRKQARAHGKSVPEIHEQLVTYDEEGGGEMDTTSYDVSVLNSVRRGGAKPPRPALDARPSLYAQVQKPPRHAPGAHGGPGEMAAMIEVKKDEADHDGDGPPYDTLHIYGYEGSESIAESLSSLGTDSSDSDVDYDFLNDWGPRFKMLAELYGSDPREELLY

T2: vascular endothelial-cadherin (human (endogenous in hBMVECs)), P33151
T2 chain: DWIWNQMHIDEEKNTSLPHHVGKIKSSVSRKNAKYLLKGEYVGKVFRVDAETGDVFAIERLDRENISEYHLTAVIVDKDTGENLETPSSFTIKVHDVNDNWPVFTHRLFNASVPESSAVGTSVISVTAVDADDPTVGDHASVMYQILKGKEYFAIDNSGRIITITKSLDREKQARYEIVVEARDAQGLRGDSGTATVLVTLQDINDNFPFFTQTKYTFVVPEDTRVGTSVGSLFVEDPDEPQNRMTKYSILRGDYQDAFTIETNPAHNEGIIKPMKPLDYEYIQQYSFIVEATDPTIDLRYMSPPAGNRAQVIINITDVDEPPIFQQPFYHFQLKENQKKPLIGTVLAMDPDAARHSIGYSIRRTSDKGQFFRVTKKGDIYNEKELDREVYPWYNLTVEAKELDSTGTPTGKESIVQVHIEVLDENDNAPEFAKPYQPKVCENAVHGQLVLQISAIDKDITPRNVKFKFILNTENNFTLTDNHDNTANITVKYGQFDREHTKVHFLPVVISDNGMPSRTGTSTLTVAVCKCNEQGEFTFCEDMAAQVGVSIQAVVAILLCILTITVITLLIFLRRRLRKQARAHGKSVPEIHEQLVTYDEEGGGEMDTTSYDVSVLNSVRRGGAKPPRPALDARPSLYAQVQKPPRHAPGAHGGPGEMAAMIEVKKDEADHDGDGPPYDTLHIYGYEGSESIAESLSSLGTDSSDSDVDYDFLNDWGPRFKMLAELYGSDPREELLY


Key:
[1] = target: T1, vascular endothelial-cadherin (human (endogenous in hBMVECs)); assay: co-IP
[2] = target: T2, vascular endothelial-cadherin (human …); assay: co-IP; details: remark: other sources report otherwise

Molecule | binding [1] | binding [2]
VE-PTP (from UniProt P23467 23-1997) | binds | 
β-catenin, P35222 1-781 (protein) MATQADLMELDMAMEPDRKAAVSHWQQQSYLDSGIHSGATTTAPSLSGKGNPEEEDVDTSQVLYEWEQGFSQSFTQEQVADIDGQYAMTRAQRVRAAMFPETLDEGMQIPSTQFDAAHPTNVQRLAEPSQMLKHAVVNLINYQDDAELATRAIPELTKLLNDEDQVVVNKAAVMVHQLSKKEASRHAIMRSPQMVSAIVRTMQNTNDVETARCTAGTLHNLSHHREGLLAIFKSGGIPALVKMLGSPVDSVLFYAITTLHNLLLHQEGAKMAVRLAGGLQKMVALLNKTNVKFLAITTDCLQILAYGNQESKLIILASGGPQALVNIMRTYTYEKLLWTTSRVLKVLSVCSSNKPAIVEAGGMQALGLHLTDPSQRLVQNCLWTLRNLSDAATKQEGMEGLLGTLVQLLGSDDINVVTCAAGILSNLTCNNYKNKMMVCQVGGIEALVRTVLRAGDREDITEPAICALRHLTSRHQEAEMAQNAVRLHYGLPVVVKLLHPPSHWPLIKATVGLIRNLALCPANHAPLREQGAIPRLVQLLVRAHQDTQRRTSMGGTQQQFVEGVRMEEIVEGCTGALHILARDVHNRIVIRGLNTIPLFVQLLYSPIENIQRVAAGVLCELAQDKEAAEAIEAEGATAPLTELLHSRNEGVATYAAAVLFRMSEDKPQDYKKRLSVELTSSLFRTEPMAWNETADLGLDIGAQGEPLGYRQDDPSYRSFHSGGYGQDALGMDPMMEHEMGGHHPGADYPVDGLPDLGHAQDLMDGLPPGDSNQLAWFDTDL |  | binds
